From patent US12419619B2, “Aspiration device” (YALE UNIVERSITY, priority 2016, dated 2025)
Entries after “also recorded” stand apart in the source; their conditions may differ.

System: stem cells

`CCN(CC)CC(=O)Nc1c(C)cccc1C` [lidocaine] was tested, and the “increase of stem cell yield compared to control” value (lidocaine given through the novel dual-lumen BMA device at a site remote from the aspiration, preliminary data) was “more than 200%” and the “stem cell yield versus control” value (lidocaine infused and aspirated through a standard/conventional BMA device) was “drastically reduced; also recorded: significantly lower than the control”.
